Data: PMC10875230
Results are given in words; binding and its absence hold for the method and conditions named. Binding seen in cells or lysates may run through a third protein. A yes stands for co-enrichment or nearness to the bait. Other partners may have been found.

Chains of the proteins cited; added tags and fusions are not shown.
UniProt Q7TQK4: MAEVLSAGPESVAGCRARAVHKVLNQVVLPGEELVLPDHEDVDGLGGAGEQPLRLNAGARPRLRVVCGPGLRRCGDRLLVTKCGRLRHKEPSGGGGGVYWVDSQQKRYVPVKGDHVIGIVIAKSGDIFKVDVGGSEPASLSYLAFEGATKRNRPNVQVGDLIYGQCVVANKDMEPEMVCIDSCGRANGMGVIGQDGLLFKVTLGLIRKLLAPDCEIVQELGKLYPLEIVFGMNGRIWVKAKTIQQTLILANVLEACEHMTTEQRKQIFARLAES
UniProt Q80U78: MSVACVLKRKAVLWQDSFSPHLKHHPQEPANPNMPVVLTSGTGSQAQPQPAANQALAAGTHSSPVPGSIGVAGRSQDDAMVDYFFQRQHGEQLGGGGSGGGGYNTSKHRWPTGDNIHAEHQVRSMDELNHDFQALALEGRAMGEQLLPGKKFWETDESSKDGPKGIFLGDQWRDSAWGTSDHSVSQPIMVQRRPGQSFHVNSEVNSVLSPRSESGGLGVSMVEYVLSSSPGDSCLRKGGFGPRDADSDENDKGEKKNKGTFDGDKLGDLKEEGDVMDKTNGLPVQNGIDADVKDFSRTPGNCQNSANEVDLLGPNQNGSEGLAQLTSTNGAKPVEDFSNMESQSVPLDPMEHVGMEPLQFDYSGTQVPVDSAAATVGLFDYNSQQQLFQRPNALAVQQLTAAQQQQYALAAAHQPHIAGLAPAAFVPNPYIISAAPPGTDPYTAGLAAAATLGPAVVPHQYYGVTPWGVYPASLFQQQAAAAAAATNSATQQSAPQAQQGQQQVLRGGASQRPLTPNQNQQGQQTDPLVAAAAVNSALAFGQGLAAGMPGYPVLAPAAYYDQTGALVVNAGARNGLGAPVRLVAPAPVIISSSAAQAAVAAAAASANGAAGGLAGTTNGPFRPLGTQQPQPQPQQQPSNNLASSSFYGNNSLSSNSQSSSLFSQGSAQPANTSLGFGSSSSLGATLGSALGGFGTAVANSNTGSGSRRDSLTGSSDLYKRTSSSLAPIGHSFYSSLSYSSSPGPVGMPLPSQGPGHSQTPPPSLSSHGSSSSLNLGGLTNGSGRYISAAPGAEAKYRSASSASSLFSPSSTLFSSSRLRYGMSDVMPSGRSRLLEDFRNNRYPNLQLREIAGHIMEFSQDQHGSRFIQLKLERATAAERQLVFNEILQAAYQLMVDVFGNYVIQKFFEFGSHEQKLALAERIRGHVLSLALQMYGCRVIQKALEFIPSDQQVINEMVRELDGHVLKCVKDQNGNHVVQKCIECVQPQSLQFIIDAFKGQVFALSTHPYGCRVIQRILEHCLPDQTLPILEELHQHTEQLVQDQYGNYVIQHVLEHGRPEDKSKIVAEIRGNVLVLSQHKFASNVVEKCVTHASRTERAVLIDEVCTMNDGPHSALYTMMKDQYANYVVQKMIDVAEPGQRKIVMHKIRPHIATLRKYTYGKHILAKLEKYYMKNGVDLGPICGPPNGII
UniProt Q80U58: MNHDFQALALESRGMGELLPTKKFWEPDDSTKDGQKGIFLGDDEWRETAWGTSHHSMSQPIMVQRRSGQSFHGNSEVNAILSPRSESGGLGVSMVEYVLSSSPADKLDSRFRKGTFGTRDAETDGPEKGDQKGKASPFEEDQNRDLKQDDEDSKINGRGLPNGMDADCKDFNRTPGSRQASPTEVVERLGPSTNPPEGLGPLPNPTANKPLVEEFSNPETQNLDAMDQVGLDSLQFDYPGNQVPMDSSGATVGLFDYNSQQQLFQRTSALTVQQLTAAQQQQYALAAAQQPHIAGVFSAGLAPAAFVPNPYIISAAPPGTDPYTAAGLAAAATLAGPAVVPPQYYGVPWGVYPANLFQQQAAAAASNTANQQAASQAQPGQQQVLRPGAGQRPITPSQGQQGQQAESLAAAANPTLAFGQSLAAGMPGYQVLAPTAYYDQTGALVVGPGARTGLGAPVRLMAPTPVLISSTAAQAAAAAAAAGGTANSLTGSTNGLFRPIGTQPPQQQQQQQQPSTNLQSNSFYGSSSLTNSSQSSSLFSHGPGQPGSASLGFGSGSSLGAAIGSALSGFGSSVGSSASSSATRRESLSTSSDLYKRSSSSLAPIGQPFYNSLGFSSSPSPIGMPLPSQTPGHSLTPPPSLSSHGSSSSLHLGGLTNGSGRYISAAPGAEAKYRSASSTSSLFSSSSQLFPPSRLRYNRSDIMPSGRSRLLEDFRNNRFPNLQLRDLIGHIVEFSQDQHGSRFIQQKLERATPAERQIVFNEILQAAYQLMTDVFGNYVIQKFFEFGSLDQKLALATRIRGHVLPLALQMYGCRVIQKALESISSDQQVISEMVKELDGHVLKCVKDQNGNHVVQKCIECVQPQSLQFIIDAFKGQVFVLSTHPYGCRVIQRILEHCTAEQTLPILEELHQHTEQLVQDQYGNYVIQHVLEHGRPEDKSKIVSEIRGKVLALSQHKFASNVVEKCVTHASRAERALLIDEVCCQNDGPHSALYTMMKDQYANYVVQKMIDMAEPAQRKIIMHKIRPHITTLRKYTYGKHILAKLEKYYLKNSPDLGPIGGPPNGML

Molecular target: myc-EXOSC3 (UniProt Q7TQK4)
Test: affinity purification with mass spectrometry; myc-EXOSC3 precipitated with anti-myc magnetic beads from lysate of transfected N2A cells; on-bead digestion, LC-MS/MS; vector IP as control

PUM1 (from UniProt Q80U78 1-1189)
binding: binds

PUM2 (from UniProt Q80U58 1-1066)
binding: binds
